# Primary screen of a compound library

Source: ChEMBL document CHEMBL3988442, “University of Dundee, Small-Polar-MMV Screening Library” (2021).

Results are given as percent effect.
The record does not define 0% and 100%; most values in the screen are far below 50% and negative numbers occur (in some assays of this library far below -100).
The compounds are a random part of those screened.
Two or more numbers in one place are separate tests of the same structure; such repeats can differ widely.

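Viability assay of Plasmodium falciparum sporozoites; the read-out is not stated. The concentration is filed as 10 mM, unlikely as a test dose, so the dose is not known. The record gives no direction; compounds that gave an IC50 in retests scored well above the rest, so higher reads as lower viability. Strong results were mostly tested again. Of about 34,000 compounds tested this way, about 280 (0.84%) reached 50% or more in at least one test.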

Compound | percent effect
O=C(CN1C=Nc2ccccc2S1(=O)=O)NCc1ccccc1 | 10.32
COc1ccc(F)c(CN2CCC(c3cc(O)nc(C)n3)C2)c1.O=C(O)CC(O)(CC(=O)O)C(=O)O (configuration not stated) | -6.517
CNC(=O)[C@@H]1CN(Cc2ccccc2)C[C@H]1C(=O)c1ccc(F)cc1 | 12.45
CCN(Cc1ccncc1)CC1(O)CCN(C(=O)c2cccc(C)c2)C1 (configuration not stated) | -6.835
CCCN(CCc1cccc(F)c1)c1ccc2nnnn2n1 | -14.35
Cc1occc1C(=O)N1CCC2(CC1)CC(c1cccnc1)C(=O)N2C (configuration not stated) | 0.1082
Cn1cc(Cl)c(CN2CCCC(Cn3cc(CO)nn3)C2)n1 (configuration not stated) | 8.049
Cl.Cl.c1ccc(OC[C@@H]2CCC[C@@]23CNCCO3)nc1 | -5.486
CCOC(=O)C1CCN(Cc2csc(-c3ccc(C)o3)n2)CC1 | -9.96 and -42.05 and -34.72
COc1cccc(COC(C)C(=O)NC2CCN(CC(N)=O)CC2)c1 (configuration not stated) | -8.99
[H][C@]12CCC(=O)N(c3ccccc3)[C@@]1([H])CCN2C(=O)c1cc(C)on1 | -0.9549
CCc1noc(CN(C)C(=O)COc2cccc(Cl)c2C)n1 | -8.102
CC(C)c1nc(CN2CCCC2Cn2cccn2)no1 (configuration not stated) | 1.561
CC(C(=O)N1CCN(Cc2ccc3c(c2)OCO3)CC1)n1ccnc1 (configuration not stated) | 3.608
CCS(=O)(=O)c1ccccc1N1CCC(NC2CCCC2)CC1 | 14.31
CC(NCc1ccc(F)cc1)c1ccc(OCC(=O)NC2CC2)cc1 (configuration not stated) | -0.9547
Cc1nc(-c2cnn(C)c2)sc1C(=O)NCc1ccc(C)n1C | -5.257
CN(Cc1ccc2c(c1)OCCO2)Cn1nc(C(C)(C)C)ccc1=O | 3.259
CCOc1ncccc1CNc1nnc(C)c(C)c1C#N | -4.021
CCCNC(=O)CCNC(=O)Cc1nc(-c2ccco2)oc1C | -9.013
Cc1nc(C)n(CC2CN(CC(=O)Nc3nccs3)CCO2)n1 (configuration not stated) | -13.21
Cc1cc(F)cc(CN2CCCn3nc(CNS(C)(=O)=O)cc3C2)c1 | -7.387
Cc1nonc1CNC(=O)C(C)Oc1ccccc1F (configuration not stated) | -5.582
COc1ccc2c(c1)CCN(CCC(=O)O)CC2 | -1.529
Cc1nnc2n1CCN(CC(=O)Nc1cc(C(C)C)no1)C2 | -8.027
O=C(O)C(F)(F)F.[H][C@@]12CCCO[C@]1([H])[C@@H](OCc1cccnc1)CN2C(=O)c1occc1C | -19.71
Fc1ccc(CCC2CCCN(Cc3c[nH]cn3)C2)c(F)c1 (configuration not stated) | 14.66
Cn1cc(-c2csc(N3CCN(C(=O)OC(C)(C)C)CC3)n2)cn1 | -7.615
CCC(=O)Nc1ccc2c(c1)C1(CCOCC1)CN2CCF.O=C(O)C(F)(F)F | 8.581
CC(C)C1CN(C(=O)c2ccc(N3CCCC3)nc2)CCS1 (configuration not stated) | -12.65
Cn1cc(CNCCn2cccn2)c(-c2cccnc2)n1 | 2.307
Cn1ncc2c(=O)[nH]c(CN3CCCC3c3cccs3)nc21 (configuration not stated) | -7.484
N#Cc1cccc(C(=O)N2C[C@H](CO)C[C@H](CN3CCCC3)C2)c1 | -3.331 and -4.613
Cc1noc(C2CCC3(CCN(C(=O)c4ccnnc4)CC3)O2)n1 (configuration not stated) | 8.509
COCC1CN(Cc2ccccn2)Cc2cn(C)nc21.O=C(O)C(F)(F)F.O=C(O)C(F)(F)F.O=C(O)C(F)(F)F (configuration not stated) | 9.933
O=C(N[C@H]1CCCC[C@@H]1O)c1ccc2nc(-c3ccccc3)[nH]c2c1 | -10.94
O=C(CCOc1ccccc1Cl)N1CCN(c2cnccn2)CC1 | 0.06752
COCCN1CCCC(O)(CN2CCN(c3cc(C)ccn3)CC2)C1=O (configuration not stated) | -4.3
COc1ccc(C(=O)N2CCCCC2Cn2cccn2)c(F)c1 (configuration not stated) | 6.868
CCc1ccccc1Nc1noc2c1CN(C(=O)C1CCCO1)CC2 (configuration not stated) | 14.39
c1csc(-c2nc(CN3CCOC(Cn4cncn4)C3)co2)c1 (configuration not stated) | 15.52
CN(C)CC1CN(c2ccc(C#N)cn2)CCO1 (configuration not stated) | 5.786
CNC(=O)c1sc2ccccc2c1C1CCN(c2nc(C)cc(C)n2)C1 (configuration not stated) | 1.808
CCCC(=O)N1CCCC1(C)c1nc(C)no1 (configuration not stated) | 3.918
COc1ccc(-c2n[nH]cc2CN(C)Cc2nccn2C)c(F)c1 | 0.9858
CC(C)n1ncc2c1NC(=O)C(C#N)C21CCCCC1 (configuration not stated) | -2.781
Cc1cccc(CN2CCCC3(CCN(CC4CCCO4)CC3)C2)n1.O=C(O)C(F)(F)F.O=C(O)C(F)(F)F (configuration not stated) | -11.98
CC(NC(=O)N1CCN(CCc2ccccc2)CC1)c1nncn1C (configuration not stated) | -10.54
Cc1ccnn1C(C)C(=O)Nc1cc(-c2ccncc2)[nH]n1 (configuration not stated) | 12.19
COc1ccnc(N2CCN(C(=O)c3cnn(C)c3C3CC3)CC2)n1 | -17.07
CSc1nnc(C2CCN(C(=O)N3CCCC3)CC2)n1C | 0.6475
Cc1ccc(C(=O)N2CCC(c3noc(-c4cccnc4)n3)CC2)cn1 | 14.52
CC(C)c1nc(C2CCCN(C(=O)c3ccc(N(C)C)nn3)C2)no1 (configuration not stated) | -12.42
CS(=O)(=O)N1CCCC(Cc2cnc(Br)cn2)CC1 (configuration not stated) | 2.389
CCc1nc(C2CCCN2C(=O)CCCn2cccn2)no1 (configuration not stated) | -4.622
CN(Cc1cnn(C)c1)C(=O)NC1CCS(=O)(=O)C1 (configuration not stated) | -1.792
CN(C)CCOCC1CN(Cc2cccs2)Cc2ccnn2C1.O=C(O)C(F)(F)F.O=C(O)C(F)(F)F.O=C(O)C(F)(F)F (configuration not stated) | -3.406
Cc1nc(C)n(Cc2cccc(NC(=O)N(C)CCC(C)O)c2)n1 (configuration not stated) | -19.02
COCCN(C)C(=O)c1cc2c(s1)CCN2C(=O)C1CC1 | 1.906
CC1CN(C(=O)C2(c3ccc(F)cc3F)CCOCC2)CCO1 (configuration not stated) | 6.036
O=C(c1cccnc1N1CCOCC1)N1CCCC(n2cccn2)C1 (configuration not stated) | 8.097
COC1CCCOC12CCN(C(=O)NCc1ccco1)CC2 (configuration not stated) | -11.85
Cc1n[nH]cc1CNCC(O)c1ccc(F)c(F)c1.Cl (configuration not stated) | 2.964
CCC1(CC)Cc2ccccc2-c2nc(NCCO)[nH]c(=O)c21 | -3.044
CN(C)[C@@H]1CCN(c2ncccn2)[C@H]1Cc1ccncc1.O=C(O)C(F)(F)F.O=C(O)C(F)(F)F | -11.12
O=C(CCc1ccco1)Nc1cc(C(F)(F)F)c[nH]c1=O | -11.4
CC(C)n1c2ccccc2c2c1cc(C(=O)N(C)C)n2C | 7.699
CN(C)C(=O)Cc1ccc(NC(=O)NC2CCCC2)cc1 | 3.088
Cc1cc(C)n(CC2CN(CC3CCCC3)CCO2)n1 (configuration not stated) | 2.472
c1cnn(CC2CN(c3ncnc4[nH]ccc34)CCO2)c1 (configuration not stated) | -8.614
CC(C)NC(=O)C1(CC2CC(c3ccc(F)cc3)=NO2)CCNCC1.O=C(O)CC(O)(CC(=O)O)C(=O)O (configuration not stated) | 5.707
COc1ccc(CNCC(C)Oc2ccccn2)cc1Br.Cl (configuration not stated) | 4.386
CN(Cc1ncc(-c2ccccc2)o1)CC1CCCN1c1cccnn1 (configuration not stated) | -17.11
O=C(O)C(F)(F)F.O=C(c1cnccn1)N1CCOC2(CCN(Cc3ccsc3)CC2)C1 | -0.1082

Some entries from above, unchanged:

With O=C(N[C@H]1CCCC[C@@H]1O)c1ccc2nc(-c3ccccc3)[nH]c2c1 the screen gave -10.94%.
With Cc1nnc2n1CCN(CC(=O)Nc1cc(C(C)C)no1)C2 the screen gave -8.027%.
With Cc1cccc(CN2CCCC3(CCN(CC4CCCO4)CC3)C2)n1.O=C(O)C(F)(F)F.O=C(O)C(F)(F)F (configuration not stated) the screen gave -11.98%.
With Cc1nonc1CNC(=O)C(C)Oc1ccccc1F (configuration not stated) the screen gave -5.582%.
With O=C(CCOc1ccccc1Cl)N1CCN(c2cnccn2)CC1 the screen gave 0.06752%.